Reference: article PMC8157044
No constants are given. Whether binding was seen depends on the method and setting. Binding seen in cells or lysates may run through a third protein.

Protein sequences, listed by entry. Tags and fused reporters are not part of them. Residues count along the entry.
UniProt Q15075, residues 36-218: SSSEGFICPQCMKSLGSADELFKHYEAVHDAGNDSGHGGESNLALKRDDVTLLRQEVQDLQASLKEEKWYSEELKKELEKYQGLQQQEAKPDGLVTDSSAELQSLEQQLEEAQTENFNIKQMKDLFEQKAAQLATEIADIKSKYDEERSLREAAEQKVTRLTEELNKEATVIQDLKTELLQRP
UniProt Q8N122: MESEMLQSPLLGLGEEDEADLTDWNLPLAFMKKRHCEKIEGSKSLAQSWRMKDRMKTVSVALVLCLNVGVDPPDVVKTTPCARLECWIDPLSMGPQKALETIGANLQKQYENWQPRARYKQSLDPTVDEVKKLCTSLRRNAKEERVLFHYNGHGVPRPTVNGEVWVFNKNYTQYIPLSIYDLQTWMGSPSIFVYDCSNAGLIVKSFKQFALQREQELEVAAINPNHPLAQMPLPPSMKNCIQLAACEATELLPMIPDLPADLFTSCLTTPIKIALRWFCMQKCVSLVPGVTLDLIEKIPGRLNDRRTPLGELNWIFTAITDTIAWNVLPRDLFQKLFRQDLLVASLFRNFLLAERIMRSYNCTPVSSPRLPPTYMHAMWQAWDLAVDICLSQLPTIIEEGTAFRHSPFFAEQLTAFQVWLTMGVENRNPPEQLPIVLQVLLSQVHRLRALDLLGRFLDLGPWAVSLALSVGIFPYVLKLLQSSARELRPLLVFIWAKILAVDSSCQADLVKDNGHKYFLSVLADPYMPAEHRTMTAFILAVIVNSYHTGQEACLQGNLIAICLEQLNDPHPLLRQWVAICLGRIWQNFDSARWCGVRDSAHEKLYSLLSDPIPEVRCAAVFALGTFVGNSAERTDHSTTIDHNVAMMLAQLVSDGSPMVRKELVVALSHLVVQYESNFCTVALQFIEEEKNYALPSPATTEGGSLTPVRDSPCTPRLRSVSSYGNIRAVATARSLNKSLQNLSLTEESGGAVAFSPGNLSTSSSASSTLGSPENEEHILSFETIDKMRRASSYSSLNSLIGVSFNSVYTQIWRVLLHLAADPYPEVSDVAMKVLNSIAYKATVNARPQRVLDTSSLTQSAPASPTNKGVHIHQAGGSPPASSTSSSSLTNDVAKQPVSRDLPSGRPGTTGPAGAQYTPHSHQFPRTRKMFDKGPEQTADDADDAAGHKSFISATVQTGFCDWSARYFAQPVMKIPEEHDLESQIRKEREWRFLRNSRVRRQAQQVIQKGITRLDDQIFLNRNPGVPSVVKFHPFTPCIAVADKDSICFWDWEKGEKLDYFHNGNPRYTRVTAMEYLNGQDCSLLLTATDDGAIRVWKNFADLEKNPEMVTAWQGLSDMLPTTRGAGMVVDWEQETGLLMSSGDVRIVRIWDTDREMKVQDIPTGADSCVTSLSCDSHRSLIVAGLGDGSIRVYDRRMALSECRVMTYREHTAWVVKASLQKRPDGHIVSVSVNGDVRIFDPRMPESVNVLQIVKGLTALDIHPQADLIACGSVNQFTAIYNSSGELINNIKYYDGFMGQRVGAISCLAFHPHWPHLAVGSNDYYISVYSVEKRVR

Biological target: GST-EEA1-Rab5-GTP-binding domain (human) (UniProt Q15075)
Assay: pull-down; GST-EEA1-Rab5BD (4 μg) added to 800 μL postnuclear supernatant of U87MG cells (serum-starved, or PDGF-BB 50 ng/mL for 5 min; lysed by needle passage in 250 mM sucrose, 3 mM imidazole pH 7.4, 0.5 mM EDTA, no detergent), overnight at 4 °C, then Glutathione-Sepharose-4B beads 2 h at 4 °C, five washes, immunoblot; meant to isolate Rab5-GTP early endosomes; only the target purified

regulatory protein associated with mTOR (Raptor) (from UniProt Q8N122 1-1335)
binding: no binding (tested: 4 μg GST-EEA1-RBD in 800 μL PNS)
